Reference: PubChem BioAssay AID504774 (Drosophila RNAi Screening Center, 2011)

Assay: 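Genes required for cells to withstand methyl methanesulphonate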 (primary screen)
Cells: Drosophila Kc167 cells
Reagent: long dsRNA against Drosophila genes, about 0.25 µg dsRNA per well
Duration: about 6 days: 3 days knock-down, then 3 days with or without MMS
Challenge: methyl methanesulphonate 0.004% (w/v) for 3 days after knock-down
Measurement: 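Viability in wells given MMS, read as ATP luminescence, normalised by quantiles plate by plate and averaged across replicates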
Direction: mean viability with MMS and viability with MMS: higher = more surviving cells after MMS
The screen tested about 23,000 reagents; below is a random part of those with a known target gene and a result. 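Values are quantile-normalised luminescence on an arbitrary scale; higher means more cells surviving MMS.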 Names joined by + are all predicted targets of the reagent.

Gene	amplicon	mean viability with MMS	viability with MMS, replicate 1	viability with MMS, replicate 2
CG15533	DRSC15069	3.58e6	4.13e6	3.98e6
CG12520	DRSC09892	3.56e6	4.08e6	3.99e6
BtbVII (BTB-protein-VII)	DRSC08151	3.27e6	3.65e6	3.77e6
BtbVII (BTB-protein-VII)	DRSC08415	3.45e6	3.99e6	3.83e6
S-Lap3 (Sperm-Leucylaminopeptidase 3)	DRSC10956	3.53e6	3.91e6	4.09e6
Zip89B (Zinc/iron regulated transporter-related protein 89B)	DRSC16128	3.45e6	3.98e6	3.83e6
CG34450	DRSC17822	3.68e6	4.19e6	3.96e6
CG10465	DRSC04848	3.51e6	3.93e6	4.01e6
CG31087	DRSC14253	3.36e6	3.76e6	3.77e6
CG5708	DRSC02881	3.57e6	4.33e6	3.77e6
Acp29AB (Accessory gland protein 29AB)	DRSC01857	3.43e6	3.91e6	3.85e6
ImpL1 (Ecdysone-inducible gene L1)	DRSC11197	3.38e6	3.89e6	3.85e6
Set8 (SET domain containing 8)	DRSC15473	3.47e6	3.95e6	3.89e6
ACXE (Adenylyl cyclase X E)	DRSC00847	3.52e6	4.02e6	3.98e6
pre-mod(mdg4)-AD + mod(mdg4) + pre-mod(mdg4)-X + 3 more	DRSC16328	3.60e6	4.21e6	3.95e6
NimB5 (Nimrod B5)	DRSC01885	3.60e6	4.12e6	4.04e6
betaggt-I (beta subunit of type I geranylgeranyl transferase)	DRSC03494	3.51e6	3.99e6	3.98e6
CG14253	DRSC14748	3.57e6	4.09e6	4.02e6
CG16837	DRSC04283	3.56e6	4.09e6	3.99e6
Ist1	DRSC09697	3.70e6	4.27e6	4.14e6
Rpn10 (Regulatory particle non-ATPase 10)	DRSC11876	3.19e6	3.63e6	3.62e6
CG32206	DRSC09602	3.62e6	4.01e6	4.20e6
CG32206	DRSC10094	3.64e6	4.17e6	4.06e6
CG32206	DRSC10095	3.55e6	4.03e6	4.01e6
CG32206	DRSC10096	3.66e6	4.17e6	4.10e6
CG32206	DRSC11080	3.66e6	4.13e6	4.13e6
swa (swallow)	DRSC18842	3.46e6	3.76e6	4.10e6
Ance-2	DRSC02539	3.55e6	4.03e6	4.02e6
CG8172	DRSC07089	3.75e6	4.19e6	4.15e6
CG8172	DRSC22113	3.45e6	3.94e6	3.92e6
CG5662	DRSC19957	1.84e6	4.08e6	3.94e6
CycJ (Cyclin J)	DRSC08653	3.63e6	4.13e6	4.10e6
Lmpt (Limpet)	DRSC09450	3.52e6	3.93e6	4.06e6
Lmpt (Limpet)	DRSC09864	3.56e6	4.04e6	4.04e6
Lmpt (Limpet)	DRSC09865	3.76e6	4.23e6	4.19e6
Lmpt (Limpet)	DRSC09866	3.58e6	4.09e6	4.03e6
Lmpt (Limpet)	DRSC11107	3.55e6	4.04e6	4.02e6
Lmpt (Limpet)	DRSC21738	3.34e6	3.85e6	3.84e6
Lmpt (Limpet)	DRSC22921	3.19e6	3.78e6	3.81e6
nerfin-1 (nervous fingers 1)	DRSC08729	3.47e6	3.93e6	3.96e6
Cyp6a17 (Cytochrome P450 6a17)	DRSC07378	3.42e6	3.83e6	3.89e6
CG34107	DRSC14554	3.67e6	4.14e6	4.09e6
CG2926	DRSC12321	3.87e6	4.54e6	4.21e6
CG30484	DRSC05457	3.47e6	4.04e6	3.88e6
CG13461	DRSC10008	3.52e6	4.07e6	3.89e6
CG7328	DRSC10812	3.50e6	3.97e6	3.95e6
BomS1 (Bomanin Short 1)	DRSC22678	3.59e6	4.04e6	4.06e6
CG17141	DRSC15178	3.63e6	4.08e6	4.15e6
MICU1 (Mitochondrial calcium uptake 1)	DRSC02752	3.52e6	3.89e6	4.09e6
RtGEF (Rho-type guanine nucleotide exchange factor)	DRSC03604	3.40e6	3.80e6	3.86e6
RtGEF (Rho-type guanine nucleotide exchange factor)	DRSC22207	3.66e6	4.12e6	4.12e6
CG17754	DRSC18131	3.56e6	4.00e6	4.18e6
unc-45 (uncoordinated 45)	DRSC15449	3.55e6	4.05e6	4.01e6
CG10638	DRSC09762	3.21e6	3.66e6	3.53e6
CG12784	DRSC14539	3.59e6	4.15e6	4.02e6
CG5781	DRSC02893	3.72e6	4.31e6	4.04e6
Ser12 (Serine protease 12)	DRSC00786	3.42e6	3.93e6	3.78e6
CG31678	DRSC02618	3.35e6	3.78e6	3.67e6
CG31678	DRSC02619	3.70e6	4.18e6	4.16e6
CG17010	DRSC02559	3.67e6	4.28e6	4.10e6
CG6583	DRSC02972	3.55e6	4.08e6	3.97e6
CheB42c (Chemosensory protein B 42c)	DRSC04972	3.65e6	4.18e6	4.02e6
CR31292 (pseudo)	DRSC13120	3.15e6	3.74e6	3.70e6
Ance-4	DRSC07104	3.52e6	4.05e6	3.95e6
hpRNA:CR18854 (hairpin RNA:CR18854)	DRSC02702	3.49e6	3.97e6	3.94e6
Tfb4 (Transcription factor B4)	DRSC00675	3.32e6	3.78e6	3.67e6
Cluap1 (Clusterin associated protein 1)	DRSC20637	3.56e6	3.96e6	4.11e6
CG6550	DRSC07001	3.71e6	4.29e6	4.10e6

Just “mean viability with MMS” (7 entries from above):
MICU1 (Mitochondrial calcium uptake 1) [DRSC02752]	3.52e6
RtGEF (Rho-type guanine nucleotide exchange factor) [DRSC03604]	3.40e6
RtGEF (Rho-type guanine nucleotide exchange factor) [DRSC22207]	3.66e6
CG17754 [DRSC18131]	3.56e6
unc-45 (uncoordinated 45) [DRSC15449]	3.55e6
CG10638 [DRSC09762]	3.21e6
CG12784 [DRSC14539]	3.59e6
